Consider one molecule from article PMC10342804, “Neuroprotective and Disease-Modifying Effects of the Triazinetrione ACD856, a Positive Allosteric Modulator of Trk-Receptors for the Treatment of Cognitive Dysfunction in Alzheimer’s Disease” (International Journal of Molecular Sciences, 2023).

By UniProt entry, the sequences of proteins in these tests, tags left out. Where a name states a change or a piece, a line headed by the entry shows the natural chain unless it says otherwise. Chains listed by the source or under a name are the forms on record and can include a tag or linker.
TrkA receptor (tropomyosin receptor kinase A) in U2OS-TrkA/SHC-1/p75NTR PathHunter cells (P04629, form named): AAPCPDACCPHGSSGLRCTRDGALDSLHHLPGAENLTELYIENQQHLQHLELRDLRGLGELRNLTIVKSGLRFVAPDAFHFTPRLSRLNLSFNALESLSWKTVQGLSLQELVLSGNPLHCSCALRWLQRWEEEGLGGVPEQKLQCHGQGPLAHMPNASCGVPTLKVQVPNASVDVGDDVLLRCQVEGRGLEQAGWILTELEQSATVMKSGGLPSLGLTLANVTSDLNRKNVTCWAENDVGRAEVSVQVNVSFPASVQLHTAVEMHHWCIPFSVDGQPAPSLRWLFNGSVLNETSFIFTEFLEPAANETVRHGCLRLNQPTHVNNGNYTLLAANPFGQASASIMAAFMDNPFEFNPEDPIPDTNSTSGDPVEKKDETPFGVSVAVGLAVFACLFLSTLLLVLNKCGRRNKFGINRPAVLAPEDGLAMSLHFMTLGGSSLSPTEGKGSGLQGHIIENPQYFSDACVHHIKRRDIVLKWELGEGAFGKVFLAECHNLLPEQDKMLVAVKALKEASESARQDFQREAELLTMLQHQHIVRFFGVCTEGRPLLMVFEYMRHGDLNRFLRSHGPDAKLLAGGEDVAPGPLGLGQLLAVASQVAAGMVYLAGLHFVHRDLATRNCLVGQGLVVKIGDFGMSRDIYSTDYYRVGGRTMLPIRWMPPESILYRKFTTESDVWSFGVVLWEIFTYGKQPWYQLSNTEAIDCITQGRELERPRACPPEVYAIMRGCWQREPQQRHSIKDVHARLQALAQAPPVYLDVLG

These are yes or no findings as the source states them, for the method shown. Binding seen in cells or lysates may run through a third protein. Some binding calls cover weakened binding; strength is not graded here. Sequences can lack the tags named with a protein.

This assay concerns the target TrkA receptor (tropomyosin receptor kinase A) in U2OS-TrkA/SHC-1/p75NTR PathHunter cells (UniProt P04629). The assay can be described thus: split reporter; PathHunter enzyme fragment complementation (β-gal donor on TrkA, acceptor on SHC-1) in U2OS-TrkA/SHC-1/p75NTR cells; treated with DMSO, NGF (0.3-30 ng/mL) or NGF plus ACD856 for 3 h at room temperature; luminescence.

B1: SHC-1 fused to the β-gal enzyme acceptor in U2OS-TrkA/SHC-1/p75NTR PathHunter cells (protein, UniProt P29353 1-583)
chain: MDLLPPKPKYNPLRNESLSSLEEGASGSTPPEELPSPSASSLGPILPPLPGDDSPTTLCSFFPRMSNLRLANPAGGRPGSKGEPGRAADDGEGIVGAAMPDSGPLPLLQDMNKLSGGGGRRTRVEGGQLGGEEWTRHGSFVNKPTRGWLHPNDKVMGPGVSYLVRYMGCVEVLQSMRALDFNTRTQVTREAISLVCEAVPGAKGATRRRKPCSRPLSSILGRSNLKFAGMPITLTVSTSSLNLMAADCKQIIANHHMQSISFASGGDPDTAEYVAYVAKDPVNQRACHILECPEGLAQDVISTIGQAFELRFKQYLRNPPKLVTPHDRMAGFDGSAWDEEEEEPPDHQYYNDFPGKEPPLGGVVDMRLREGAAPGAARPTAPNAQTPSHLGATLPVGQPVGGDPEVRKQMPPPPPCPGRELFDDPSYVNVQNLDKARQAVGGAGPPNPAINGSAPRDLFDMKPFEDALRVPPPPQSVSMAEQLRGEPWFHGKLSRREAEALLQLNGDFLVRESTTTPGQYVLTGLQSGQPKHLLLVDPEGVVRTKDHRFESVSHLISYHMDNHLPIISAGSELCLQQPVERKL
Consider B1, for which the binding result is reported as “binds”.
